Reference: the supplement of paper PMC12067093, “Discovery and optimisation of a covalent ligand for TRIM25 and its application to targeted protein ubiquitination” (Chemical Science, 2025)
The other results are listed elsewhere or left out.

Compound: Cc1cc(ccc1-c1ccccc1)C(=O)N1CCCN(CC1)C(=O)CCl [compound 10]
Test: probe-labelled cysteine peptide fold change vs DMSO (competition) (log2 fold change); higher = less target engagement (more negative = stronger competition)
Details: THP-1, incubation time: 4 h
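Note: competitive profiling in live THP-1 cells: cysteine peptides tagged with an iodoacetamide desthiobiotin (IA-DTB) probe, intensity after compound treatment relative to DMSO-treated cells.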

Target	probe-labelled cysteine peptide fold change (10 µM)	probe-labelled cysteine peptide fold change (50 µM)
DDAH2_O95865_11_CSHALIR (UniProt O95865)	0.0326	0.0102
CYFIP1_Q7L576_1088_LCCGLSMFEVILTR (UniProt Q7L576)	0.137	0.226
CXorf38_Q8TB03_133_QGPEECDAVALLSLINSCDHFVVDR (UniProt Q8TB03)	0.0726	-0.137
CXXC1_Q9P0U4_181+184+187_TEDCGHCDFCR (UniProt Q9P0U4)	-0.0641	-0.57
DBR1_Q9UK59_9_VAVAGCCHGELDK (UniProt Q9UK59)	-0.043	-0.372
CYB5R3_P00387_274+284_DHLPPPEEEPLVLMCGPPPMIQYACLPNLDHVGHPTER (UniProt P00387)	0.133	0.373
DARS_P14868_259_QMCICADFEK (UniProt P14868)	0.07	-0.051
CYB5R1_Q9UHQ9_288_EHLPAPGDDVLVLLCGPPPMVQLACHPNLDK (UniProt Q9UHQ9)	-0.00877	-0.297
CXXC1_Q9P0U4_486_QQAVREDEESNEGDSDDTDLQIFCVSCGHPINPR (UniProt Q9P0U4)	0.0725	-0.265
DCAF1_Q9Y4B6_521_HTCMALR (UniProt Q9Y4B6)	-0.162	0.185
CTSV_O60911_211_ENGGLDSEESYPYVAVDEICK (UniProt O60911)	-0.431	-0.244
CUL4B_Q13620_297_CWQNHCR (UniProt Q13620)	0.0578	0.185
DCPS_Q96C86_222_WNQQQLDDLYLIAICHR (UniProt Q96C86)	0.144	0.0953
DCAF6_Q58WW2_190_EDCKDDILINCR (UniProt Q58WW2)	0.117	-0.0419
CUL3_Q13618_462+464_LKTECGCQFTSK (UniProt Q13618)	-0.0794	-1.31
DCAF11_Q8TEB1_460_FSPIHSTGQQFIYSGCSTGK (UniProt Q8TEB1)	0.182	0.247
DCAF4_Q8WV16_88_LLPGHNNCNPLTK (UniProt Q8WV16)	-0.132	-0.353
DCTD_P32321_40_DPNSQVGACIVNSENK (UniProt P32321)	0.0273	0.408
CTSB_P07858_319_GQDHCGIESEVVAGIPR (UniProt P07858)	-0.0753	-0.0436
DCLRE1C_Q96SD1_34_AYFLSHCHK (UniProt Q96SD1)	-0.0775	-0.167
DARS2_Q6PI48_590_LICLVTGSPSIRDVIAFPK (UniProt Q6PI48)	-0.247	0.252

Target	probe-labelled cysteine peptide fold change (10 µM)	probe-labelled cysteine peptide fold change (50 µM)
DCUN1D5_Q9BTE7_117_GMTSLQCDCTEK (UniProt Q9BTE7)	0.0628	-0.295
CYC1_P08574_219_HGGEDYVFSLLTGYCEPPTGVSLR (UniProt P08574)	0.265	0.31
CWC27_Q6UX04_164_SCEVLFNPFDDIIPR (UniProt Q6UX04)	0.0259	0.0151
CYTH4_Q9UIA0_49_LKDEIADVFAQIDCFESAEESR (UniProt Q9UIA0)	0.4	0.0852
DCTN1_Q14203_81_KYFTCDEGHGIFVR (UniProt Q14203)	0.079	-0.325
CWC22_Q9HCG8_253_QLCLTASK (UniProt Q9HCG8)	-0.19	0.179
CYLD_Q9NQC7_252_VGETIESGTVIFCDVLPGK (UniProt Q9NQC7)	-0.152	0.0402
CTSH_P09668_272_TGIYSSTSCHK (UniProt P09668)	0.176	-0.114
CTU1_Q7Z7A3_144_SCCTFCGVLR (UniProt Q7Z7A3)	-0.353	-1.17
DCAF10_Q5QP82_412_NSLEVVTPEVLGESDHGNCITSLQLHPK (UniProt Q5QP82)	0.0465	-0.177
CXXC1_Q9P0U4_564_VPADEVCGCPLVR (UniProt Q9P0U4)	0.111	-0.109
DDAH1_O94760_222_LTVPDDIAANCIYLNIPNK (UniProt O94760)	0.216	-0.124
CTR9_Q6PD62_309_VQHLALHAFHNTEVEAMQAESCYQLAR (UniProt Q6PD62)	0.213	0.0318
DAXX_Q9UER7_720_LSQTPHSQPPRPGTCK (UniProt Q9UER7)	-0.415	-0.341
DCTN3_O75935_140_LAQIHIQQQDQCVEITEESK (UniProt O75935)	-0.291	-0.146
CTSC_P53634_136_NWACFTGK (UniProt P53634)	-0.212	0.125
CUL3_Q13618_316_TMCECMSSYLR (UniProt Q13618)	0.0604	-0.0491
DCXR_Q7Z4W1_150_AVTNHSVYCSTK (UniProt Q7Z4W1)	0.187	0.105
DALRD3_Q5D0E6_314_HLICGPVK (UniProt Q5D0E6)	0.197	-0.389
CTSB_P07858_105+108_EIRDQGSCGSCWAFGAVEAISDR (UniProt P07858)	-0.142	-0.642
CXorf56_Q9H5V9_69_FCNTEDEETMYLR (UniProt Q9H5V9)	0.0387	-0.244

Target	probe-labelled cysteine peptide fold change (10 µM)	probe-labelled cysteine peptide fold change (50 µM)
DCUN1D1_Q96GG9_115_AATQCEFSK (UniProt Q96GG9)	0.0985	0.11
DCTN1_Q14203_81_YFTCDEGHGIFVR (UniProt Q14203)	0.127	0.127
DCTPP1_Q9H773_110_CRVDLPLAVLSK (UniProt Q9H773)	0.139	0.122
CUL1_Q13616_496_QACGFEYTSK (UniProt Q13616)	0.0722	-0.0615
DCTN1_Q14203_636_FELSENCSERPGLR (UniProt Q14203)	-0.207	-0.0675
CXXC1_Q9P0U4_181+187_RTEDCGHCDFCR (UniProt Q9P0U4)	-0.0138	-0.748
CYLD_Q9NQC7_106_FTELLLAITNCEER (UniProt Q9NQC7)	-0.0716	-0.0759
DCAF8_Q5TAQ9_483_GGVVNCLEPHPHLPVLATSGLDHDVK (UniProt Q5TAQ9)	-0.0812	-0.0115
CXorf38_Q8TB03_24_AGHCLLLLR (UniProt Q8TB03)	-0.243	-0.159
DARS2_Q6PI48_202_EYLCNLHGFVDIETPTLFK (UniProt Q6PI48)	0.153	0.438
DCAF13_Q9NV06_330_RMQHVICVK (UniProt Q9NV06)	0.29	0.472
DARS2_Q6PI48_152_TAELLNACK (UniProt Q6PI48)	0.0756	0.133
CXorf38_Q8TB03_103_NGDVHWGNCRPGR (UniProt Q8TB03)	-0.04	0.0793
CYFIP1_Q7L576_918_NFVGPPHFQVICR (UniProt Q7L576)	0.098	0.223
DBNL_Q9UJU6_97_GACASHVSTMASFLK (UniProt Q9UJU6)	-0.0693	-0.135
DBR1_Q9UK59_36_RGPGPVDLLLCCGDFQAVR (UniProt Q9UK59)	0.0792	-0.183
DCP1A_Q9NPI6_39_QHDPYITSIADLTGQVALYTFCPK (UniProt Q9NPI6)	-0.0807	-0.284
CUL3_Q13618_298_TEDLGCMYK (UniProt Q13618)	-0.203	-0.102
CTSZ_Q9UBR2_214_MMAEIYANGPISCGIMATER (UniProt Q9UBR2)	-0.126	-0.0828
CTSB_P07858_59_LCGTFLGGPKPPQR (UniProt P07858)	0.145	-0.146
DCTN4_Q9UJW0_280_CEHNLSKPEFNPTSIK (UniProt Q9UJW0)	-0.153	-0.202

Target	probe-labelled cysteine peptide fold change (10 µM)	probe-labelled cysteine peptide fold change (50 µM)
DCAF12L1_Q5VU92_117_CNTLFVVDVESGHIAR (UniProt Q5VU92)	0.017	0.105
CUL7_Q14999_60_RGDEGDGGSGQVDCK (UniProt Q14999)	-0.268	-0.211
DCAF1_Q9Y4B6_967_ERPSPCNGR (UniProt Q9Y4B6)	-0.152	-0.733
DACH1_Q9UI36_279_DFETLYNDCTNASSR (UniProt Q9UI36)	0.0622	0.287
DARS2_Q6PI48_459_LECADLLETR (UniProt Q6PI48)	-0.0592	0.225
CTTNBP2NL_Q9P2B4_312_GTATEPLMLMSVFCQTESFPAER (UniProt Q9P2B4)	0.204	0.436
DCAF11_Q8TEB1_288_EVLGGANDGCLYVFDR (UniProt Q8TEB1)	0.151	0.357
DCTD_P32321_60_IVGIGYNGMPNGCSDDVLPWR (UniProt P32321)	0.155	-0.179
CTSS_P25774_320_GNHCGIASFPSYPEI (UniProt P25774)	0.0751	0.00783
CTSZ_Q9UBR2_33_RGQTCYRPLR (UniProt Q9UBR2)	-0.262	-0.237
DCAF12L1_Q5VU92_150_LAQDQQGCGIHAIELNPSK (UniProt Q5VU92)	-0.214	-0.239
CTSZ_Q9UBR2_296_YNLAIEEHCTFGDPIV (UniProt Q9UBR2)	-0.348	-0.258
CTSS_P25774_213_CQYDSK (UniProt P25774)	0.0136	-0.108
CTSS_P25774_224_AATCSK (UniProt P25774)	-0.202	-0.328
DCAF4_Q8WV16_143_SQLGFLNVTNYCHLAHELR (UniProt Q8WV16)	0.12	0.311
DAZAP1_Q96EP5_63_FKDPNCVGTVLASRPHTLDGR (UniProt Q96EP5)	0.15	0.0131
CTSC_P53634_331_YAQDFGLVEEACFPYTGTDSPCK (UniProt P53634)	0.15	0.322
CYB5R1_Q9UHQ9_278+288_EHLPAPGDDVLVLLCGPPPMVQLACHPNLDK (UniProt Q9UHQ9)	0.257	-0.159
